The results in this text go back to PMC9036047.

The chains behind the UniProt entries cited, without tags or fusion partners.
UniProt P08908: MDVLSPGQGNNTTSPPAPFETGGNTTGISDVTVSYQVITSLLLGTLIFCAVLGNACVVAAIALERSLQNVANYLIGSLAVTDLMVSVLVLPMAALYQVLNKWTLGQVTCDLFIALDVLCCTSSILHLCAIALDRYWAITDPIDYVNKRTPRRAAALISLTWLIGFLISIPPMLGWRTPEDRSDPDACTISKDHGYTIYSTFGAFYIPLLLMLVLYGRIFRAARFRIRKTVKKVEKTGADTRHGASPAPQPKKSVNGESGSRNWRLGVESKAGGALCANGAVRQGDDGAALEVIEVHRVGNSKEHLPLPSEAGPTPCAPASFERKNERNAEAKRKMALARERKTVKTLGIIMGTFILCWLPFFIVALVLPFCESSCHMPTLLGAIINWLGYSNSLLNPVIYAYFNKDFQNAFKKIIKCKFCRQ
UniProt P51665: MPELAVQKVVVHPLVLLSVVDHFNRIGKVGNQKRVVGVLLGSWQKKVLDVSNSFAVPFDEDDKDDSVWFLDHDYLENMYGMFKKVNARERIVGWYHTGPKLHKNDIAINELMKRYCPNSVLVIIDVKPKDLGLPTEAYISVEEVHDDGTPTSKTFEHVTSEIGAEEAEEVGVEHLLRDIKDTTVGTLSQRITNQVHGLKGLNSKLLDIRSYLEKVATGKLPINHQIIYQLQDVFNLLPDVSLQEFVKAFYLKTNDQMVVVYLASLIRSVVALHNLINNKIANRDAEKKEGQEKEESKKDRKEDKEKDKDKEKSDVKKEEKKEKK
UniProt P19474: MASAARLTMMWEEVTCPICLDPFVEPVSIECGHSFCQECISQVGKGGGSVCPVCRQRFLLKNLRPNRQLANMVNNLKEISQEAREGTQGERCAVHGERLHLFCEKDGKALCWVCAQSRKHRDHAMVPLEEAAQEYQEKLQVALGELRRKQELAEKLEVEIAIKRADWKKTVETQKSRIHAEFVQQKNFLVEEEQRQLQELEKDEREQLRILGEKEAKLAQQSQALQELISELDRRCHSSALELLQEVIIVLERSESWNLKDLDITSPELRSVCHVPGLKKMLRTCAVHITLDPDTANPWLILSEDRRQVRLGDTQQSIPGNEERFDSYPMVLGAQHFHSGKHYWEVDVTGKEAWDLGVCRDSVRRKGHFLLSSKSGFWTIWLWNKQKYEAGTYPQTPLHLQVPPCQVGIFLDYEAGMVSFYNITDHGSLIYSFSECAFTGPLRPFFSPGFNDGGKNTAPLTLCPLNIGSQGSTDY

This assay concerns the target 5-hydroxytryptamine receptor 1A (UniProt P08908). Briefly: affinity purification with mass spectrometry; IP of HTR1A from cell lysate; silver-stained gel bands at 48 and 37 kD analysed by MS/MS.

These are yes or no findings as the source states them, for the method shown. In cells and extracts the contact can be indirect. Here binding means that the protein was enriched with, or labelled near, the bait; the list need not be complete.

On to PSMD7 (from UniProt P51665 1-324), for which the binding result is listed as “binds”.
With “TRIM21 (from UniProt P19474 1-475) (enzyme)”, the binding entry is “binds”.
